Data published in article PMC5564716.
These are yes or no findings as the source states them, for the method shown. Binding seen in cells or lysates may run through a third protein. Some binding calls cover weakened binding; strength is not graded here.

Sequences of proteins named here, by UniProt entry; tags and fusion partners are left off.
UniProt Q12888: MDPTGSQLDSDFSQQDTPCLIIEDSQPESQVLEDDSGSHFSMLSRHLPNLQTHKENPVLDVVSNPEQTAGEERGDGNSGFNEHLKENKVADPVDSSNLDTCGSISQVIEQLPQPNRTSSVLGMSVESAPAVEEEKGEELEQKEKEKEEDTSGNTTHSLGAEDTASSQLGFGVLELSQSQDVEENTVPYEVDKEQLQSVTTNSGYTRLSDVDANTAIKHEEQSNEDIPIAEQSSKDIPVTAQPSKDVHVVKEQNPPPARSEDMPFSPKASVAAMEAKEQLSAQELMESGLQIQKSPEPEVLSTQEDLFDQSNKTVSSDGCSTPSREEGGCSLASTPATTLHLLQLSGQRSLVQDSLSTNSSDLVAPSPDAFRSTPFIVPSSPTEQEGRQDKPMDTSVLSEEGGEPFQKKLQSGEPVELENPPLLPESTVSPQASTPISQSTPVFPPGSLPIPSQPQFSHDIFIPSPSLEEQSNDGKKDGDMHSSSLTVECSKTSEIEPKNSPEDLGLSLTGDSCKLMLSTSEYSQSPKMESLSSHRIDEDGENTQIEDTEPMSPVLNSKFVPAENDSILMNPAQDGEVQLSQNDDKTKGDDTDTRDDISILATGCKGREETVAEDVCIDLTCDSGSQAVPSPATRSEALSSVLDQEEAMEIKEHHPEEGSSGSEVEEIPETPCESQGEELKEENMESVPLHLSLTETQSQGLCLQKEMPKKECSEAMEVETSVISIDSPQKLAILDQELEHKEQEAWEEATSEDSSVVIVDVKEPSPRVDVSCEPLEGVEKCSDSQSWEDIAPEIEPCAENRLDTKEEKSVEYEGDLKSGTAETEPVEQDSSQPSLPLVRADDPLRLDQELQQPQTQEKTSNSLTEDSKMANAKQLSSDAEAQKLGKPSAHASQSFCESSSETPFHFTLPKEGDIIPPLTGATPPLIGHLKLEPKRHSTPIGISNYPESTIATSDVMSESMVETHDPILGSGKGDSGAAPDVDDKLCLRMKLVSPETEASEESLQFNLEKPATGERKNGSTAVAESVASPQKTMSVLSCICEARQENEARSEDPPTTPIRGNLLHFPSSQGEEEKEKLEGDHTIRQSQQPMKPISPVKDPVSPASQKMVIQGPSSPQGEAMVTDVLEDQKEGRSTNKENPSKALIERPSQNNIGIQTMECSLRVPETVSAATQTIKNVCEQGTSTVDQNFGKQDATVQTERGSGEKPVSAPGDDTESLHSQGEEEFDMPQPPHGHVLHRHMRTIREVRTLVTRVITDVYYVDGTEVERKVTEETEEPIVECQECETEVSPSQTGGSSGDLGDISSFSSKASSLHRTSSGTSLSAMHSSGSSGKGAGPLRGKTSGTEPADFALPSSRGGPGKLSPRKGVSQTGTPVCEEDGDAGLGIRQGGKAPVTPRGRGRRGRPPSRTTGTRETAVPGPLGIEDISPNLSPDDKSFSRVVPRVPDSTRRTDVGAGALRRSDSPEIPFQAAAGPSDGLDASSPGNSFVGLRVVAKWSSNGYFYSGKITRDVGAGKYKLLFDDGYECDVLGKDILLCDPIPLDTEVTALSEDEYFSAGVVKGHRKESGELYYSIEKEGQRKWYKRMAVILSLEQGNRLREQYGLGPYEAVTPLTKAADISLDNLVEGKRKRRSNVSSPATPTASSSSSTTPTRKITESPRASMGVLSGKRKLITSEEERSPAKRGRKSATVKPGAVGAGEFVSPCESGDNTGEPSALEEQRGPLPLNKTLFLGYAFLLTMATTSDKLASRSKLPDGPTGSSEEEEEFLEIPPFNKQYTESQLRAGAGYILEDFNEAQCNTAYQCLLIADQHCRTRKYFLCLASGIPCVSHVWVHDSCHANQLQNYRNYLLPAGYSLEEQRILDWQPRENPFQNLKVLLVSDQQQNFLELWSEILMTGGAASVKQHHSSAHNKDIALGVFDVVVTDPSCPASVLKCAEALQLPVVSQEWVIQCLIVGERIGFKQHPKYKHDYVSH

Biological target: T1, mitotic centromere-associated kinesin (MCAK), endogenous (human (endogenous in human cells)) (UniProt Q99661)
T1 sequence: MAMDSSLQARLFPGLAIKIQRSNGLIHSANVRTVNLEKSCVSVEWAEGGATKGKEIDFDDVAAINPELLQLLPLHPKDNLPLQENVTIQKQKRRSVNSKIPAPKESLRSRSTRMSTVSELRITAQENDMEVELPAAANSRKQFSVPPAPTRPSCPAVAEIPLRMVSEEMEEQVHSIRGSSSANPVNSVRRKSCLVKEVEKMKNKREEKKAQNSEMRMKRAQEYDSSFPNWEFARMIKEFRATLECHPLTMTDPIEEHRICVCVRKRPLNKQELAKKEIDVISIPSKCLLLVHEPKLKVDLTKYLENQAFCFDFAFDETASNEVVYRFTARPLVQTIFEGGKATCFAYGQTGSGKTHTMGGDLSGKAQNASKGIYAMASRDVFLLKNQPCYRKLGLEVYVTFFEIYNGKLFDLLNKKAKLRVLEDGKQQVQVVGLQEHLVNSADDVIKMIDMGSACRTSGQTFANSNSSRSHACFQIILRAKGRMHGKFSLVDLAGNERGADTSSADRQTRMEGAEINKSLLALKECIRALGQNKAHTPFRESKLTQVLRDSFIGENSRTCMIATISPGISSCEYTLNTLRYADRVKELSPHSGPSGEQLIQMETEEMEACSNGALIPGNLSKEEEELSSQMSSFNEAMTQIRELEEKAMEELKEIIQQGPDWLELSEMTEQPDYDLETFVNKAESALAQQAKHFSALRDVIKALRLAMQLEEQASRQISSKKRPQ
Test: co-IP; endogenous immunoprecipitation of 53BP1 or MCAK from extracts of unsynchronized or NOC-synchronized mitotic cells, immunoblotting

binding: binds
Substance: tumor suppressor p53-binding protein 1 (53BP1), endogenous (from UniProt Q12888 1-1972)
